In paper doi:10.1101/585497:
These are yes or no findings as the source states them, for the method shown. In cells and extracts the contact can be indirect. Here binding means that the protein was enriched with, or labelled near, the bait; the list need not be complete. Each block holds one molecule with its values, some of them ahead of it.

Amino acid sequences for entries named in this document (tags omitted).
UniProt P25963: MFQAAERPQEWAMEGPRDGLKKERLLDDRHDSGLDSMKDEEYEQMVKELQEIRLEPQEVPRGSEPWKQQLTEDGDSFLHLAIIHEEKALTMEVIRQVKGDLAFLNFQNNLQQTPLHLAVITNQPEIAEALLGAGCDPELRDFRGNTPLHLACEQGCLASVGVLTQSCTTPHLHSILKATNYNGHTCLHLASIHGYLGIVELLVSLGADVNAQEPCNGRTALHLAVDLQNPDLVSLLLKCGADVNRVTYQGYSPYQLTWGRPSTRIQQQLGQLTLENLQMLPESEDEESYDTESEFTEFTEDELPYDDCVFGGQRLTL
UniProt P49790: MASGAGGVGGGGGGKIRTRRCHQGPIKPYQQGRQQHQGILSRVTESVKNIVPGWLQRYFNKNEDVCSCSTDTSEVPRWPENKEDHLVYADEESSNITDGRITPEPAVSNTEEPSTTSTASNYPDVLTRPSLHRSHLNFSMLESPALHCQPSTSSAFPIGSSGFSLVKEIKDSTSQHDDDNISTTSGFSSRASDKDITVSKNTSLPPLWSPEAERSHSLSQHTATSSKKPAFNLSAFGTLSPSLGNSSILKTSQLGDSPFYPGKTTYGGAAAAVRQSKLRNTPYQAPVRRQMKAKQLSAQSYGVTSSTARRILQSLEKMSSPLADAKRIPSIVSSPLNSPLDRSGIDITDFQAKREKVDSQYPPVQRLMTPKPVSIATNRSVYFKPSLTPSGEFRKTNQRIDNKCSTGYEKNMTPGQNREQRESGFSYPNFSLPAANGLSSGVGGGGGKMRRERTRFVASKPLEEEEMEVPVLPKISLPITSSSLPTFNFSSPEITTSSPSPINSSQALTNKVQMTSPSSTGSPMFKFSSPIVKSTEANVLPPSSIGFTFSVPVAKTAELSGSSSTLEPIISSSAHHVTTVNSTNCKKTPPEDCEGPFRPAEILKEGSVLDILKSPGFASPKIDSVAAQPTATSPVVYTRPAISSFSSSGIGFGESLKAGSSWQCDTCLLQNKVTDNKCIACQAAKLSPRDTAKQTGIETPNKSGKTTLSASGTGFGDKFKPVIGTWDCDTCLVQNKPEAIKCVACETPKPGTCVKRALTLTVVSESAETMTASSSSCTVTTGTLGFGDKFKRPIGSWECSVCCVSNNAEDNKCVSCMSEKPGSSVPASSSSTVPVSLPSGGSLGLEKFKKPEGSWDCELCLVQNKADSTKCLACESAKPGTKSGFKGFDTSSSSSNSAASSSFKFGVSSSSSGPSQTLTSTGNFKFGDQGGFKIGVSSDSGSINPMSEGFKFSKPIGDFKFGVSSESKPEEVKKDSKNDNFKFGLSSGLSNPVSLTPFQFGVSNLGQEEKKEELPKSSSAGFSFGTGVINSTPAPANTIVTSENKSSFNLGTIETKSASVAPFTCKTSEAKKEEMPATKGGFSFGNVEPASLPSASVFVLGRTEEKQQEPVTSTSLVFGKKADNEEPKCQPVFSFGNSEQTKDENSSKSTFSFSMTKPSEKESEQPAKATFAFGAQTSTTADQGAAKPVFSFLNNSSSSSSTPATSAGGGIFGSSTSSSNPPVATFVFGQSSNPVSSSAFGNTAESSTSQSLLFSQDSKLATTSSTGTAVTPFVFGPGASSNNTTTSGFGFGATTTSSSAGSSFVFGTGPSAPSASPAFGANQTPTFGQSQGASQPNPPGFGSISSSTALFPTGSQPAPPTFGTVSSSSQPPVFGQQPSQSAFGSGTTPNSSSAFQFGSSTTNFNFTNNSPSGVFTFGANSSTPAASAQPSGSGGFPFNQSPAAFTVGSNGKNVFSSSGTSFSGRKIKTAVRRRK
UniProt P49792: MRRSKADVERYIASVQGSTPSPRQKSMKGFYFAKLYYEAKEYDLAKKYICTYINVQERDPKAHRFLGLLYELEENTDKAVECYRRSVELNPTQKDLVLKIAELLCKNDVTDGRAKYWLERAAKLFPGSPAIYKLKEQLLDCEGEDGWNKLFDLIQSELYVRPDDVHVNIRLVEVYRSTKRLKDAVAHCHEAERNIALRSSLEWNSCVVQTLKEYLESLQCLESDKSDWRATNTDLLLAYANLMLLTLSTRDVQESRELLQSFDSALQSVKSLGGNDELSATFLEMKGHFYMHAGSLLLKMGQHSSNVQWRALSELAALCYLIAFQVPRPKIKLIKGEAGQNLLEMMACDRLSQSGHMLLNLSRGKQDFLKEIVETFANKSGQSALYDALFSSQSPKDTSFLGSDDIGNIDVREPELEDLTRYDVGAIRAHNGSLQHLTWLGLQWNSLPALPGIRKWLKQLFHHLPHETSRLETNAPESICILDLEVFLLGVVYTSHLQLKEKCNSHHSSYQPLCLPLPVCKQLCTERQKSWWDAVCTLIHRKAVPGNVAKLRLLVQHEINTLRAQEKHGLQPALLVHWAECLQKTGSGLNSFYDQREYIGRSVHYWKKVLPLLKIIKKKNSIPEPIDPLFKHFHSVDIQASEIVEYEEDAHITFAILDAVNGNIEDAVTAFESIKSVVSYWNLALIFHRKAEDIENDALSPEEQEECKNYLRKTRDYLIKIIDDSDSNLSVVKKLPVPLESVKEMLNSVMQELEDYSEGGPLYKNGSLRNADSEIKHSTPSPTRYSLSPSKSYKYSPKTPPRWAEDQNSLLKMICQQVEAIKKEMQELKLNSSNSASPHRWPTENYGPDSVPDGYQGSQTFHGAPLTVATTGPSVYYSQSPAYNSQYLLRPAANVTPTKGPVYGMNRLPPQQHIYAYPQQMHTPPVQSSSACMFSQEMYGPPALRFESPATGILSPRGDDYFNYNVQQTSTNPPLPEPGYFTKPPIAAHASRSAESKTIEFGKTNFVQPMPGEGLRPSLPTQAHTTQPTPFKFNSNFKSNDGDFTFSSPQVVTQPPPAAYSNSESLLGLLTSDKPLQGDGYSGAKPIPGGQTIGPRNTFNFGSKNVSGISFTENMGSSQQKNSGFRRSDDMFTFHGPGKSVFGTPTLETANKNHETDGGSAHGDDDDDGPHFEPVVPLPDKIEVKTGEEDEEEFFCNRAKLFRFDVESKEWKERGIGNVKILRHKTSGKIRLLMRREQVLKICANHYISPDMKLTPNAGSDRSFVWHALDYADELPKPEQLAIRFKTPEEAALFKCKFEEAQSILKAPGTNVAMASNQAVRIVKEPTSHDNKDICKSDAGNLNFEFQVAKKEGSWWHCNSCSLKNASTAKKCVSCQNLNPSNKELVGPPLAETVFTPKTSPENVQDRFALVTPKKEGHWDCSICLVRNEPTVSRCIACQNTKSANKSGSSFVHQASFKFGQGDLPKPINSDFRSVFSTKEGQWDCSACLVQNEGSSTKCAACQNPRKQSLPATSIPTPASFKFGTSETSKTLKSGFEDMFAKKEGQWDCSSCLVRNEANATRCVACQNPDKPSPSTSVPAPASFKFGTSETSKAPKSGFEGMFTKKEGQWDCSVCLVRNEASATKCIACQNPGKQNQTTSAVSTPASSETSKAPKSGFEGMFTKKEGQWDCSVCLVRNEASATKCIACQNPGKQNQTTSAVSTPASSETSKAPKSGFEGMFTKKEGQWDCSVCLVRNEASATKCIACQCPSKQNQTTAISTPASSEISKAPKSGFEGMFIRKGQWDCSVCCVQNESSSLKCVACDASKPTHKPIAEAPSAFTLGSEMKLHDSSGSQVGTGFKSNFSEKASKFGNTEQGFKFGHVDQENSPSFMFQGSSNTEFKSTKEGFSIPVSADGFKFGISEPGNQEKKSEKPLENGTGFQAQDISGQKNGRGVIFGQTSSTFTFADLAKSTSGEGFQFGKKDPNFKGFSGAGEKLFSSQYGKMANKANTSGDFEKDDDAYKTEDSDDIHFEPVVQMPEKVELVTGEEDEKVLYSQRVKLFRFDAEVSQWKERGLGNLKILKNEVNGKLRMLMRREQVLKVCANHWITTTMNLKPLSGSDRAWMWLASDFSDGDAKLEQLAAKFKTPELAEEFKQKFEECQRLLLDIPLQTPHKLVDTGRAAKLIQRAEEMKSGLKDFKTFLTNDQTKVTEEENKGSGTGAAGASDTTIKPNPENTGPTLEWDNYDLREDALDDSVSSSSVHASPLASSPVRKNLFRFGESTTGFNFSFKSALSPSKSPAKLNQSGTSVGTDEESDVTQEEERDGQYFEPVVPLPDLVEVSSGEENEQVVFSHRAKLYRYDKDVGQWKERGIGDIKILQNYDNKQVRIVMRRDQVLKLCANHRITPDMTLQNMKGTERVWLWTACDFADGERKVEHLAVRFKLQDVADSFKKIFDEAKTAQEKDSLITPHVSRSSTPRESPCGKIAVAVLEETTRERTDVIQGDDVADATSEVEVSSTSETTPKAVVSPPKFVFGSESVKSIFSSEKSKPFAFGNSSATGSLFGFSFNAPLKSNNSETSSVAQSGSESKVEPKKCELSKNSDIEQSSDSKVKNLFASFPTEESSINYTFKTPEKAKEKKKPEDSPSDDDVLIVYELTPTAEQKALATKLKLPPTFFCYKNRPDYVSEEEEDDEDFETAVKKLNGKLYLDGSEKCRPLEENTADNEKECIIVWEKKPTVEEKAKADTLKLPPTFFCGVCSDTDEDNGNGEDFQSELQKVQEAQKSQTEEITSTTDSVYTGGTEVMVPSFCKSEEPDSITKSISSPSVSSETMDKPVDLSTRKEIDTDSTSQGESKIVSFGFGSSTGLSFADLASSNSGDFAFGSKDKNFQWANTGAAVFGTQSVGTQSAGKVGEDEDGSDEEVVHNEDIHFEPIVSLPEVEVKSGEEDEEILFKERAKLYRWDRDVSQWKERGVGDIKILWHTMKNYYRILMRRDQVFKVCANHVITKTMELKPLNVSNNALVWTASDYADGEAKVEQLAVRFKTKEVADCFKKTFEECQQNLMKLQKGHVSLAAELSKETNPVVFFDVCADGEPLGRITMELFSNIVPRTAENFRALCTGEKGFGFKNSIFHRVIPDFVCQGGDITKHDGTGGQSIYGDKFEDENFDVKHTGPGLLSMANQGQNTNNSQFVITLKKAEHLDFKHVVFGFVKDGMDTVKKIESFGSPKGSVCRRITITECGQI
UniProt P19838: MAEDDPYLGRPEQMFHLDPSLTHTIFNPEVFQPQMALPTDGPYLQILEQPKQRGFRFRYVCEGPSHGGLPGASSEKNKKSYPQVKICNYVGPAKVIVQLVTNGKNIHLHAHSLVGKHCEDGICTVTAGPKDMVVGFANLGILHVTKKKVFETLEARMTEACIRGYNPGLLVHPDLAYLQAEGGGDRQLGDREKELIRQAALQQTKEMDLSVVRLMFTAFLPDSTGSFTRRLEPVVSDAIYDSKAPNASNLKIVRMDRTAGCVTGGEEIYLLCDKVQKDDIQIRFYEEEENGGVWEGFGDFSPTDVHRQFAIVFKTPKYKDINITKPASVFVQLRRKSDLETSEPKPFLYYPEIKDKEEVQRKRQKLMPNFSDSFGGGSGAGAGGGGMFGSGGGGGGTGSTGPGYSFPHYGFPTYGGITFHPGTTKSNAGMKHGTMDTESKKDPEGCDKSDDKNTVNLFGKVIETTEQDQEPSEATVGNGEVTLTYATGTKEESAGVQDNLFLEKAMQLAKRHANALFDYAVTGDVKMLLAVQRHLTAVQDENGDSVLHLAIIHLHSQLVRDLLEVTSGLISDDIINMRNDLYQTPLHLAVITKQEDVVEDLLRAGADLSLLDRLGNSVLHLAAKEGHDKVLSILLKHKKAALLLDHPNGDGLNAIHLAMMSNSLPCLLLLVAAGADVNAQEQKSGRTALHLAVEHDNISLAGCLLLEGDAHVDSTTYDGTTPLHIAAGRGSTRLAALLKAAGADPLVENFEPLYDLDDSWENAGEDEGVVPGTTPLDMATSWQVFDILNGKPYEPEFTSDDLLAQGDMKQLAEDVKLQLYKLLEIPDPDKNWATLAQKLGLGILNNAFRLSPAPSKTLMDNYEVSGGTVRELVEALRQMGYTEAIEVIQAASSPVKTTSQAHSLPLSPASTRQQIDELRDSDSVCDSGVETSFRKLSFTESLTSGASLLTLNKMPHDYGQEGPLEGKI

Target: N-terminally mEmerald (GFP)-tagged IκBα (UniProt P25963)
Assay: affinity purification with mass spectrometry

Molecule: Nup153 (endogenous, HEK293T) (from UniProt P49790 1-1475)
- binding: binds

Molecule: Nup358/SUMO E3-ligase RANBP2 (from UniProt P49792 1-3224)
- binding: binds

B2: NFKB2 (protein, UniProt Q00653)
chain: MESCYNPGLDGIIEYDDFKLNSSIVEPKEPAPETADGPYLVIVEQPKQRGFRFRYGCEGPSHGGLPGASSEKGRKTYPTVKICNYEGPAKIEVDLVTHSDPPRAHAHSLVGKQCSELGICAVSVGPKDMTAQFNNLGVLHVTKKNMMGTMIQKLQRQRLRSRPQGLTEAEQRELEQEAKELKKVMDLSIVRLRFSAFLRASDGSFSLPLKPVISQPIHDSKSPGASNLKISRMDKTAGSVRGGDEVYLLCDKVQKDDIEVRFYEDDENGWQAFGDFSPTDVHKQYAIVFRTPPYHKMKIERPVTVFLQLKRKRGGDVSDSKQFTYYPLVEDKEEVQRKRRKALPTFSQPFGGGSHMGGGSGGAAGGYGGAGGGGSLGFFPSSLAYSPYQSGAGPMGCYPGGGGGAQMAATVPSRDSGEEAAEPSAPSRTPQCEPQAPEMLQRAREYNARLFGLAQRSARALLDYGVTADARALLAGQRHLLTAQDENGDTPLHLAIIHGQTSVIEQIVYVIHHAQDLGVVNLTNHLHQTPLHLAVITGQTSVVSFLLRVGADPALLDRHGDSAMHLALRAGAGAPELLRALLQSGAPAVPQLLHMPDFEGLYPVHLAVRARSPECLDLLVDSGAEVEATERQGGRTALHLATEMEELGLVTHLVTKLRANVNARTFAGNTPLHLAAGLGYPTLTRLLLKAGADIHAENEEPLCPLPSPPTSDSDSDSEGPEKDTRSSFRGHTPLDLTCSTKVKTLLLNAAQNTMEPPLTPPSPAGPGLSLGDTALQNLEQLLDGPEAQGSWAELAERLGLRSLVDTYRQTTSPSGSLLRSYELAGGDLAGLLEALSDMGLEEGVRLLRGPETRDKLPSTAEVKEDSAYGSQSVEQEAEKLGPPPEPPGGLCHGHPQPQVH
- binding: binds

B3: Nup155 (protein, UniProt O75694 1-1391)
chain: MPSSLLGAAMPASTSAAALQEALENAGRLIDRQLQEDRMYPDLSELLMVSAPNNPTVSGMSDMDYPLQGPGLLSVPNLPEISSIRRVPLPPELVEQFGHMQCNCMMGVFPPISRAWLTIDSDIFMWNYEDGGDLAYFDGLSETILAVGLVKPKAGIFQPHVRHLLVLATPVDIVILGLSYANLQTGSGVLNDSLSGGMQLLPDPLYSLPTDNTYLLTITSTDNGRIFLAGKDGCLYEVAYQAEAGWFSQRCRKINHSKSSLSFLVPSLLQFTFSEDDPILQIAIDNSRNILYTRSEKGVIQVYDLGQDGQGMSRVASVSQNAIVSAAGNIARTIDRSVFKPIVQIAVIENSESLDCQLLAVTHAGVRLYFSTCPFRQPLARPNTLTLVHVRLPPGFSASSTVEKPSKVHRALYSKGILLMAASENEDNDILWCVNHDTFPFQKPMMETQMTAGVDGHSWALSAIDELKVDKIITPLNKDHIPITDSPVVVQQHMLPPKKFVLLSAQGSLMFHKLRPVDQLRHLLVSNVGGDGEEIERFFKLHQEDQACATCLILACSTAACDREVSAWATRAFFRYGGEAQMRFPTTLPPPSNVGPILGSPVYSSSPVPSGSPYPNPSFLGTPSHGIQPPAMSTPVCALGNPATQATNMSCVTGPEIVYSGKHNGICIYFSRIMGNIWDASLVVERIFKSGNREITAIESSVPCQLLESVLQELKGLQEFLDRNSQFAGGPLGNPNTTAKVQQRLIGFMRPENGNPQQMQQELQRKFHEAQLSEKISLQAIQQLVRKSYQALALWKLLCEHQFTIIVAELQKELQEQLKITTFKDLVIRDKELTGALIASLINCYIRDNAAVDGISLHLQDICPLLYSTDDAICSKANELLQRSRQVQNKTEKERMLRESLKEYQKISNQVDLSNVCAQYRQVRFYEGVVELSLTAAEKKDPQGLGLHFYKHGEPEEDIVGLQAFQERLNSYKCITDTLQELVNQSKAAPQSPSVPKKPGPPVLSSDPNMLSNEEAGHHFEQMLKLSQRSKDELFSIALYNWLIQVDLADKLLQVASPFLEPHLVRMAKVDQNRVRYMDLLWRYYEKNRSFSNAARVLSRLADMHSTEISLQQRLEYIARAILSAKSSTAISSIAADGEFLHELEEKMEVARIQLQIQETLQRQYSHHSSVQDAVSQLDSELMDITKLYGEFADPFKLAECKLAIIHCAGYSDPILVQTLWQDIIEKELSDSVTLSSSDRMHALSLKIVLLGKIYAGTPRFFPLDFIVQFLEQQVCTLNWDVGFVIQTMNEIGVPLPRLLEVYDQLFKSRDPFWNRMKKPLHLLDCIHVLLIRYVENPSQVLNCERRRFTNLCLDAVCGYLVELQSMSSSVAVQAITGNFKSLQAKLERLH
- binding: binds

The remaining lines, values ahead:

- binding: binds
Molecule: NFKB1 (from UniProt P19838)

- binding: binds
B1: Nup93 (protein, UniProt Q8N1F7 1-819)
chain: MDTEGFGELLQQAEQLAAETEGISELPHVERNLQEIQQAGERLRSRTLTRTSQETADVKASVLLGSRGLDISHISQRLESLSAATTFEPLEPVKDTDIQGFLKNEKDNALLSAIEESRKRTFGMAEEYHRESMLVEWEQVKQRILHTLLASGEDALDFTQESEPSYISDVGPPGRSSLDNIEMAYARQIYIYNEKIVNGHLQPNLVDLCASVAELDDKSISDMWTMVKQMTDVLLTPATDALKNRSSVEVRMEFVRQALAYLEQSYKNYTLVTVFGNLHQAQLGGVPGTYQLVRSFLNIKLPAPLPGLQDGEVEGHPVWALIYYCMRCGDLLAASQVVNRAQHQLGEFKTWFQEYMNSKDRRLSPATENKLRLHYRRALRNNTDPYKRAVYCIIGRCDVTDNQSEVADKTEDYLWLKLNQVCFDDDGTSSPQDRLTLSQFQKQLLEDYGESHFTVNQQPFLYFQVLFLTAQFEAAVAFLFRMERLRCHAVHVALVLFELKLLLKSSGQSAQLLSHEPGDPPCLRRLNFVRLLMLYTRKFESTDPREALQYFYFLRDEKDSQGENMFLRCVSELVIESREFDMILGKLENDGSRKPGVIDKFTSDTKPIINKVASVAENKGLFEEAAKLYDLAKNADKVLELMNKLLSPVVPQISAPQSNKERLKNMALSIAERYRAQGISANKFVDSTFYLLLDLITFFDEYHSGHIDRAFDIIERLKLVPLNQESVEERVAAFRNFSDEIRHNLSEVLLATMNILFTQFKRLKGTSPSSSSRPQRVIEDRDSQLRSQARTLITFAGMIPYRTSGDTNARLVQMEVLMN
